From US9586999B2, “Methods and compositions related to improving properties of pharmacological agents targeting nervous system” (University of Utah Research Foundation, priority 2006, dated 2017)
Not every detail of the peptide structures is certain; ends, links or a residue may be inferred. Square brackets hold non-standard residues; d marks the D form. Peptide text beside a SMILES is read from it. * marks the point of attachment. Palmitoyl = CCCCCCCCCCCCCCCC(=O)*; Ahx = NCCCCCC(=O)O; Sar = CNCC(=O)O

Tested on: 6 Hz limbic seizures
Assay: 6 Hz limbic (psychomotor) seizure test
Format: in vivo, mouse
Text: Mice not displaying limbic seizures were considered protected.
As mentioned above, the 6 Hz seizure becomes more resistant to block by antiepileptic drugs as the current is increased from 22 mA to 44 mA.

Compound | % Protection at 2 hours afforded by a dose of 4 mg/kg, i.p. [%] | % Protection at 4 hours afforded by a dose of 4 mg/kg, i.p. [%] | % Protection at 1 hour afforded by a dose of 4 mg/kg, i.p. [%] | ED50 in the 6 Hz limbic seizure model (in Table 14 in parentheses) (i.p., SAR analogs)
CCCCCCCCCCCCCCCC(=O)NCCCC[C@H](NC(=O)[C@H](CCCCN)NC(=O)[C@H](CCCCN)NC(=O)CCCCCNC(=O)[C@@H]1CCCN1C(=O)CNC(=O)[C@H](CC(C)C)NC(=O)[C@H](CC(C)C)NC(=O)[C@H](Cc1ccc(O)cc1)NC(=O)CNC(=O)[C@H](C)NC(=O)[C@H](CO)NC(=O)[C@H](CC(N)=O)NC(=O)[C@H](CC(C)C)NC(=O)[C@@H](NC(=O)[C@H](Cc1c[nH]c2ccccc12)NC(=O)CNC)[C@@H](C)O)C(=O)N[C@@H](CCCCN)C(N)=O [NAX 306-2] (H-[Sar]WTLNSAGYLLGP[Ahx]KKK(Palmitoyl)K-NH2) | 75 | 0 | – | –
CCCCCCCCCCCCCCCC(=O)NCCCC[C@H](NC(=O)[C@H](CCCCN)NC(=O)[C@H](CCCCN)NC(=O)[C@@H]1CCCN1C(=O)CNC(=O)[C@H](CC(C)C)NC(=O)[C@H](CC(C)C)NC(=O)[C@H](Cc1ccc(O)cc1)NC(=O)CNC(=O)[C@H](C)NC(=O)[C@H](CO)NC(=O)[C@H](CC(N)=O)NC(=O)[C@H](CC(C)C)NC(=O)[C@@H](NC(=O)[C@@H](N)Cc1c[nH]c2ccccc12)[C@@H](C)O)C(=O)N[C@@H](CCCCN)C(N)=O [NAX 1205-1] (H-WTLNSAGYLLGPKKK(Palmitoyl)K-NH2) | 50 | 0 | 50 | (5.7 mg/kg)
CCCCCCCCCCCCCCCC(=O)NCCCC[C@H](NC(=O)[C@H](CCCCN)NC(=O)[C@H](CCCCN)NC(=O)[C@H](CCCCN)NC(=O)[C@H](CCCCN)NC(=O)[C@H](CC(C)C)NC(=O)[C@H](CC(C)C)NC(=O)[C@H](Cc1ccc(O)cc1)NC(=O)CNC(=O)[C@H](C)NC(=O)[C@H](CO)NC(=O)[C@H](CC(N)=O)NC(=O)[C@H](CC(C)C)NC(=O)[C@@H](NC(=O)[C@H](Cc1c[nH]c2ccccc12)NC(=O)CNC)[C@@H](C)O)C(=O)N[C@@H](CCCCN)C(N)=O [NAX 1205-4] (H-[Sar]WTLNSAGYLLKKKKK(Palmitoyl)K-NH2) | 100 | 66 | 75 | –
CNCC(=O)N[C@@H](Cc1c[nH]c2ccccc12)C(=O)N[C@H](C(=O)N[C@@H](CC(C)C)C(=O)N[C@@H](CC(N)=O)C(=O)N[C@@H](CO)C(=O)N[C@@H](C)C(=O)NCC(=O)N[C@@H](Cc1ccc(O)cc1)C(=O)N[C@@H](CC(C)C)C(=O)N[C@@H](CC(C)C)C(=O)NCC(=O)N1CCC[C@H]1C(=O)N[C@@H](CCCCN)C(=O)N[C@@H](CCCCN)C(=O)N[C@@H](CCCCN)C(=O)N[C@@H](CCCCN)C(N)=O)[C@@H](C)O [NAX 1105-2] | 0 | 0 | 30 | –
